Results are given in words; binding and its absence hold for the method and conditions named. Some entries that bind do so weakly or less than the wild type.
B1: SC16.129 (antibody, V domains shown)
VH: QVQLKESGPGLVAPSQSLSITCTVSGFSLTDYGVSWIRQPPGKGLEWLGVIWGGGSTYYNSALKSRLSISKDNSKSQVFLELNSLQTDDTAIYYCAKHYGHYAAYWGQGTLVTVSA
VL: DIQMTQSPASQSASLGESVTITCLASQTIGTWLAWYQQKPGKSPQLLIYAATSLADGVPSRFSGSGSGTKFSFKISSLQAEDFVSYYCQQLYSTPYTFGGGTKLEIK
B2: SC16.117 (antibody, V domains shown)
VH: QVQLKESGPGLVAPSQSLSITCTVSGFSLTNYGVHWVRQPPGKGLEWLGVIWAGGITNYNSALMSRLSISEDNSKSQVFLKMNSLQTDDTAMYYCARNLGPYAMDYWGQGTSVTVSS
VL: DIQMNQSPSSLSASLGDTITITCHVSQNINVWLSWYQQKPGNIPKLLIQKASNLHTGVPSRFSGSGSGTGFTLTISSLQPEDIATYYCQQGQSYPFTFGSGTKLEIK
B3: SC16.131 (antibody, V domains shown)
VH: QVQLKESGPGLVAPSQSLSITCTVSGFSLTNYGVHWVRQPPGKGLEWLGVIWAGGITNYNSALMSRLSISEDNSKSQVFLKMNSLQTDDTAMYYCARNLGPYAMDYWGQGTSVTVSS
VL: DIQMNQSPSSLSASLGDTITITCHVSQNINVWLSWYQQKPGNIPKLLIQKASNLHTGVPSRFSGSGSGTGFTLTISSLQPEDIATYYCQQGQSYPFTFGSGTKLEIK
B4: SC16.79 (antibody, V domains shown)
VH: EVQLQQSGPELVKPGASVKISCKTSGYTFTEYTMHWVKQSHGKSLEWIGGINPNNGGTSYNQKFKGKATLTVDKSSSTAYMELRSLTSEDSAVYYCARGPAWFAYWGQGTLVTVSA
VL: DIVMSQSPSSLAVSAGEKVTMSCKSSQSLLNSRTRKNYLAWYQQKPGQSPKLLIYWASTRESGVPDRFTGSGSGTDFTLTISSVQAEDLAVYYCKQSYNLYTFGGGTKLKIK
B5: SC16.63 (antibody, V domains shown)
VH: QVQLQQSGTELLRPGASVKISCKATGYTFSSYWMEWVKQRPGHGLEWIGEILPGSGTTQYNEKFKGKATFTADTSSNTAYMHLSSLTSEDSAVYYCARGTNSLWGQGTLVTVSA
VL: QIVLTQSPAIMSASPGEKVTMTCSASSSVSYMYWYQQKSGTSPKRWIYDTSKLASGVPARFSGSGSGTSYSLTISSMEAEDAATYYCQQWSSNPYTFGGGTKLEIK
B6: SC16.72 (antibody, V domains shown)
VH: EVQLQQSGPELVKPGASVKMSCKASGYTFTSYVMHWVKQKPGQGLEWIGYINPYNDGTKYNEKFKGKATLTSDKSSSTAYMELSSLTSEDSAVYYCARLRSRAMDYWGQGTSVTVSS
VL: ENVLTQSPAIMSASLGEKVTMSCRASSSVNYMSWYQQKSDASPKLWIYYTSNLAPGVPARFSGSGSGNSYSLTISSMEGEDAATYYCQQFTSSPYTFGGGTKLEIK
B7: SC16.65 (antibody, V domains shown)
VH: QVTLKESGPGILQPSQTLSLTCSFSGFSLSTSGMGVGWIRQPSGKGLEWLALIWWDDVKRYNPALKSRLTISKDASSSQVFLKIASVDTADTATYYCARIASYDYDVVYAMDYWGQGTSVSVSS
VL: QIVLTQSPALMSASPGEKVTMTCSVTSSVSYMYWYQQKPRSSPKPWIYLTSNLASGVPARFSGSGSGTSYSLTISSVEAEDAATYYCQQWRNNPFTFGSGTKVEIK
notes: murine mAb; V regions only
B8: SC16.80 (antibody, V domains shown)
VH: EVQLQQSGPELVKPGGSKKISCKASGYSFTGYSMNWVKQSHGKNLEWIGLINPYSGGTIYNQKFKGKATLTVDKSSSTAYMELLSLTSEDSAVYYCARRSDYPLVYWGQGTLVTVSA
VL: ETTVTQSPASLSMAIGEKVTIRCITSTDIDDDMIWYQQKPGEPPKLLISEGNTLRPGVPSRFSSSGYGTDFVFTIENMLSEDVADYYCLKRDDLPYTFGGGTQVEIK
B9: SC16.67 (antibody, V domains shown)
VH: EVQLVETGGGLVQPKGSLKLSCAVSAFTFTTYAMNWVRQAPGKGLEWVARIRNKSNNYATYYADSVKDRFTISRDDSQSMLYLQMNNLKIEDTAMYYCVFYYDYVYWGQGTLVTVSA
VL: QAVVTQESALTTSPGETVTLTCRSSTGAVTTSNYANWIQEKPDHLFTGLIGGTNNRAPGVPARFSGSLIGDKAALTITGAQTEDEAIYFCGLWYSNHLVFGGGTKLTVL
B10: SC16.84 (antibody, V domains shown)
VH: EVQLQQSGPELVKPGASMKISCKASGYSFTGYTMNWVKQSHGKNLEWIGLINPYNGGTTYNQKFKGKATLTVDKSSSTAYMELLSLTSEDSAVYYCALGYYGNYRRYFDVWGAGTTVTVSS
VL: DIQMTQSPSSLSASLGGKVTITCKASQDIKKYIAWYQHKPGKGPRLLIHYTSTLEPGIPSRFSGSGSGRDYSFSISNLEPEDIATYYCLQYDILWTFGGGTKLEIK
B11: SC16.57 (antibody, V domains shown)
VH: EVKLVESGGDLVKPGGSLKLSCAASGFAFSSYDMSWVRQTPEKRLEWVATISSGGSYTYYPDSVKGRFTISRDNVRDTLYLQMSSLRSEDTALYYCARQAIGTYFDYWGQGTTLTVSS
VL: DIVMTQSHKFMSISVGDRVSITCKASQDVSIFVAWYQQKPGQSPKLLIYSASYRYTGVPDRFTGSGSGTDFIFTISSVQAEDLAVYYCQQHYGTPFTFGSGTKLKIR
B12: SC16.104 (antibody, V domains shown)
VH: QVQLKESGPDLVQPSQTLSLTCTVSGFSLTFYGVHWVRQPPGKGLEWVGTMGWDDKKYYNSALKSRLSISRDTSKNQVFLKLSSLQTEDTAMYYCTRGGTGFDYWGQGTTLTVSS
VL: QIVLSQSPAILSASPGEKVTMTCRASSSVSYIHWYRQKPGSSPKPWIYATSNLASGVPARFSGSGSGTSYSLTISRVEAEDAATYYCQQWSSNPPTFGAGTKLELK
B13: SC16.62 (antibody, V domains shown)
VH: EVMLVESGGDLVKPGGSLKLSCAASGFTFSSYAMSWVRQTPEKRLEWVAYISGGGDHIYYPDSVRGRFTISRDNAKDTLYLQMSSLRSEDTALYDCARVRDWYFDVWGAGTTVTVSS
VL: DIKMTQSPSSMYASLGERVTITCKASQDINSFLSWFQRKPGKSPKTLIYRANRLVDGVPSRFTGSGSGQEFSLTISSLEYEDLGIYYCLQYDEFPYTFGGGTKLEIK
B14: SC16.106 (antibody, V domains shown)
VH: QVQLKQSGPGLVAPSQSLFITCTVSGFSLTSYEINWVRQPPGKGLEWLGVIWTGGSTNYNSALISRLSISKDNSKSLVFLKMNSLQTDDTAIYYCVRGVYAMDYWGQGTSVTVSS
VL: DIKMTQSPSSMYASLGERVTITCKASQDINSYLSWFQQKPGKSPKTLIYRANRLVDGVPSRFSGSGSGQDYSLTISSLEYEDMGIYYCLQYDEFPFTFGSGTKLEIK
B15: SC16.78 (antibody, V domains shown)
VH: EVKLVESGGGLVKPGGSLKLSCAASGFTFGRYVMSWVRQTPEKKLEWVASITSGGTTYYPDSVKGRFTISRDNARNILYLQMSSLRSEDTAMYYCARVYYHYDDIFAYWGQGTLVTVSA
VL: DIKMTQSPSSMYASLGERVTITCKASQDINSYLSWFQQKPGRSPKTLIYRANRLVDGVPSRFSGSGSGQDYSLTISSLDYEDMGIYYCLQYDEFPFTFGSGTKLEIK
B16: SC16.58 (antibody, V domains shown)
VH: DVQLVESGGGLVQPGGSRKLSCAASGFTFSSFGMHWVRQAPEKGLEWVAYISSGSSNIYYADTVKGRFTISRDNPKNTLFLQMTSLRSEDTAMYYCARGYYGNYDAMDYWGQGTSVTVSS
VL: DIQMTQSPASLSSSVGETVTITCRASENIYSYLAWYQQKQGKSPQLLVYNAKTLAEGVPSRFSGSGSGTQFSLKINSLQPEDFGTYYCQHHYDSPLTFGAGTKLELR
B17: SC16.61 (antibody, V domains shown)
VH: EVLLQRSGPDLVKPGASVTIPCKASGYTFTDYNMDWVKQSHGKSLEWIGNINTYNGGTIYNQKFKGKATLTVDKPSSTAYMELRSLTSEDTAVYYCARRLRYGGHYFDYWGQGTALTVSS
VL: DIVMTQSTSSLAMSVGQKVTMSCKSSQSLLNSSNQKNYLAWYQQEPGQSPKLLVSFASTRESGVPDRFTGSGSGTDFTLTISGVQAEDLAVYYCQQHYSIPLTFGAGTKLELK
B18: SC16.73 (antibody, V domains shown)
VH: QVQLQQSGAELMKPGASVKISCKANGYTFSSYWIEWLRQRPGHGLEWIGEILPGSDNSNYNEKFKGKATFTADTSSNTAYMQLSSLTSEESAVYYCTRGLRRDGSYYYVMEHWGQGTSVTVSS
VL: DIQMTQSPSSLSASLGERVSLTCRASQDIGYSLNWLQQEPDGTIKRLIYATSSLDSGVPKRFSGSRSGSDYSLTISSLESEDFVDYYCLQYASSPWTFGGGTKLEIK
B19: SC16.101 (antibody, V domains shown)
VL: QIVLTQSPAIMSASLGERVTMTCTASSSVSSSYLHWYQQKPGSSPKLWIYSTSNLASGVPARFSGSESGTSYSLTISNMEAEDAATYYCHQYHRSPFTFGSGTKLEIK
V domain: QVTLKESGPGILQPSQTLSLTCSFSGFSLSTSGMGVGWIRQPSGKGLEWLAHIWWDDVKRYNPALKSRLTISKDASSSQVFLKIASVDTAETATYYCAHILDRAYYFDYWGQGTTLTVTS
B20: SC16.81 (antibody, V domains shown)
VH: QVQLKESGPVLVAPSQSLSITCTVSGFSLTSYGVHWVRQPPGKGLEWLGVIWAGGSTNYNSALMSRLSISKDNSKSQVFLKMNSLQTDDTAMYYCAKQGNFYAMDYWGQGTSVTVSS
VL: QIVLTQSPAIMSASLGERVTLTCTASSSVSSSYLHWYQQKPGSSPKLWIYSTSNLASGVPTRFSGSGSGTSYSLRISSMEAEDAATYYCHQYNRSPLTFGAGTKLELK

Target: T1, human DLL3 (UniProt Q9NYJ7 27-492)
T1 chain: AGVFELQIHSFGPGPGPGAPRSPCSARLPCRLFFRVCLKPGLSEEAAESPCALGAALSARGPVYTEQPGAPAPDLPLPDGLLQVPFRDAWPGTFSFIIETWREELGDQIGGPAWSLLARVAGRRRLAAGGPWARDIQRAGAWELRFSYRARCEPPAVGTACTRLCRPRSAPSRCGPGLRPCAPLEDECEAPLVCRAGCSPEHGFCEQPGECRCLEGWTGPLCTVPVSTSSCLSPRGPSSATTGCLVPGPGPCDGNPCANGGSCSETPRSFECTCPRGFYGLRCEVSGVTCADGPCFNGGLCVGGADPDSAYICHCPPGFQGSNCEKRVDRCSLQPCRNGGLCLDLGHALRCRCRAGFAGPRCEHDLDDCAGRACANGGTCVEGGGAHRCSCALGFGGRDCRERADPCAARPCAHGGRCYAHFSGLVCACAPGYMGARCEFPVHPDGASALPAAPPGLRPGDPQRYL
Test: screening on immobilized DLL3 or 293-hDLL3 cells

binding, binds:
B1
B2
B3

target: DLL3 (UniProt Q9NYJ7); test: screening on immobilized DLL3 or 293-hDLL3 cells

binding, binds:
B4
B5
B6
B7
B8
B9
B10
B11
B12
B13
B14
B15
B16
B17
B18
B19
B20
